The text below walks through data of the supplement of paper PMC10849652.

Sequences of proteins named here, by UniProt entry; tags and fusion partners are left off. A change or cut given only in a name is not applied to a line headed by its entry.
UniProt Q9UBU8, whole entry, looked up: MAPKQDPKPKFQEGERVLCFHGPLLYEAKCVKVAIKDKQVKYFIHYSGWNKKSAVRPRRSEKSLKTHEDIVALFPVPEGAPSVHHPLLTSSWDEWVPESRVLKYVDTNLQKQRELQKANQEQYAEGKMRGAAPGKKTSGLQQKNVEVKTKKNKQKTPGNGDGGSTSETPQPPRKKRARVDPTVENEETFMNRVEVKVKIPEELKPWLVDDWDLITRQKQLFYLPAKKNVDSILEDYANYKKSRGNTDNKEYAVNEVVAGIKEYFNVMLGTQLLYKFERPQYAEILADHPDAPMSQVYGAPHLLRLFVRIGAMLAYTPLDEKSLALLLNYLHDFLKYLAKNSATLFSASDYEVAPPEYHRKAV
UniProt O95563: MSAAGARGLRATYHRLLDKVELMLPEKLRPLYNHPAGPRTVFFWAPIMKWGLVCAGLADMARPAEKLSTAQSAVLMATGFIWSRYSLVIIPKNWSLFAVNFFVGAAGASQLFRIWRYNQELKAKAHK
UniProt Q9NXC5: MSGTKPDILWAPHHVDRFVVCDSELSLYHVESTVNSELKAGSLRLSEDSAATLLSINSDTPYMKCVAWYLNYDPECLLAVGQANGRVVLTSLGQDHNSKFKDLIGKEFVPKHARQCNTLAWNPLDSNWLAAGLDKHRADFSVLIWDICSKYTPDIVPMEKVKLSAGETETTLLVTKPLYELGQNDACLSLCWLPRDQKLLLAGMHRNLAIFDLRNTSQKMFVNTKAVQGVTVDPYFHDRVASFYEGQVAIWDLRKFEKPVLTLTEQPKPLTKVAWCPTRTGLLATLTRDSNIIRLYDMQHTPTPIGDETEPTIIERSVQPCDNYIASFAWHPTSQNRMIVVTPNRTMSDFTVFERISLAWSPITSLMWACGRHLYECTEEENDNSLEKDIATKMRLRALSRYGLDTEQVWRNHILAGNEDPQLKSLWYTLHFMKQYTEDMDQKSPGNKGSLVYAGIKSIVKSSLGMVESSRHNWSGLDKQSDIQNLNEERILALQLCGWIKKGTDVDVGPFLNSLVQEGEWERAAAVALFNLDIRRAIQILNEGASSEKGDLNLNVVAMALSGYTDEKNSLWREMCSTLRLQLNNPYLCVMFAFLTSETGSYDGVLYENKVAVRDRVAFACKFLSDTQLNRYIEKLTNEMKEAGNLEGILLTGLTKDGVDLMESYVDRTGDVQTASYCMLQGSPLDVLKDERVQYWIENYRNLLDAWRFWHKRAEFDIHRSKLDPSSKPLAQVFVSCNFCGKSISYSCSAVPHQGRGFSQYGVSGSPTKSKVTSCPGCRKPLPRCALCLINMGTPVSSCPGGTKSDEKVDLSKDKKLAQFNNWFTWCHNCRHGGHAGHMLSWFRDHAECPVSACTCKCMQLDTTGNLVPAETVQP
UniProt Q9H000: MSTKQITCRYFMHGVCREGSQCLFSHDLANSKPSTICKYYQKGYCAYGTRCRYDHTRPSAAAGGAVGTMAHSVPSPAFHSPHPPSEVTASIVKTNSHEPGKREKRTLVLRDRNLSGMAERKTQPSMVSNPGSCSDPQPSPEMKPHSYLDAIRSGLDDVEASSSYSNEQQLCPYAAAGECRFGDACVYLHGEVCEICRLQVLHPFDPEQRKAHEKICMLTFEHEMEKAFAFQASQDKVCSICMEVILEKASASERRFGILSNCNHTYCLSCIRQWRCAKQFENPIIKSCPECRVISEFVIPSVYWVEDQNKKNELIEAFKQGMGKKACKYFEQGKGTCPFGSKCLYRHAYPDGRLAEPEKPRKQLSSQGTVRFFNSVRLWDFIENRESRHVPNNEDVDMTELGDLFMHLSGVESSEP
UniProt P22033: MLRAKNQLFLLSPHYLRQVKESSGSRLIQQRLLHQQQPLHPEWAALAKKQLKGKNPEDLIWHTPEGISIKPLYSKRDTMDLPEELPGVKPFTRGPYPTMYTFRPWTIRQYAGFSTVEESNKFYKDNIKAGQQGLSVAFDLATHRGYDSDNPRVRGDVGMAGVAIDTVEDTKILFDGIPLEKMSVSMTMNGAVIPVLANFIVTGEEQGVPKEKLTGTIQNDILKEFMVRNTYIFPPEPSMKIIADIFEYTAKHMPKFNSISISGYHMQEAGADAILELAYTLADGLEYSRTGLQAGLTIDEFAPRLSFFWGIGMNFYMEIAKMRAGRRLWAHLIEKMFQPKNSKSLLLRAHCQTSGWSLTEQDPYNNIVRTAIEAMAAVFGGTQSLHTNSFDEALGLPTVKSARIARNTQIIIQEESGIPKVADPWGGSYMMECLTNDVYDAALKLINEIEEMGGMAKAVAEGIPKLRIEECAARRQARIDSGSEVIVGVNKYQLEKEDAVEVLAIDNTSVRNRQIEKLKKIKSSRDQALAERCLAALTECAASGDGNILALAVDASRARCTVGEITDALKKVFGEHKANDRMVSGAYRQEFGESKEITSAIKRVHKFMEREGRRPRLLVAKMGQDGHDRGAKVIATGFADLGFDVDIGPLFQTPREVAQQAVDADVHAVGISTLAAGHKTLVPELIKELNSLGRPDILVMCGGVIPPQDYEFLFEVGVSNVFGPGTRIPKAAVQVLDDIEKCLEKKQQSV
UniProt Q9Y6X9: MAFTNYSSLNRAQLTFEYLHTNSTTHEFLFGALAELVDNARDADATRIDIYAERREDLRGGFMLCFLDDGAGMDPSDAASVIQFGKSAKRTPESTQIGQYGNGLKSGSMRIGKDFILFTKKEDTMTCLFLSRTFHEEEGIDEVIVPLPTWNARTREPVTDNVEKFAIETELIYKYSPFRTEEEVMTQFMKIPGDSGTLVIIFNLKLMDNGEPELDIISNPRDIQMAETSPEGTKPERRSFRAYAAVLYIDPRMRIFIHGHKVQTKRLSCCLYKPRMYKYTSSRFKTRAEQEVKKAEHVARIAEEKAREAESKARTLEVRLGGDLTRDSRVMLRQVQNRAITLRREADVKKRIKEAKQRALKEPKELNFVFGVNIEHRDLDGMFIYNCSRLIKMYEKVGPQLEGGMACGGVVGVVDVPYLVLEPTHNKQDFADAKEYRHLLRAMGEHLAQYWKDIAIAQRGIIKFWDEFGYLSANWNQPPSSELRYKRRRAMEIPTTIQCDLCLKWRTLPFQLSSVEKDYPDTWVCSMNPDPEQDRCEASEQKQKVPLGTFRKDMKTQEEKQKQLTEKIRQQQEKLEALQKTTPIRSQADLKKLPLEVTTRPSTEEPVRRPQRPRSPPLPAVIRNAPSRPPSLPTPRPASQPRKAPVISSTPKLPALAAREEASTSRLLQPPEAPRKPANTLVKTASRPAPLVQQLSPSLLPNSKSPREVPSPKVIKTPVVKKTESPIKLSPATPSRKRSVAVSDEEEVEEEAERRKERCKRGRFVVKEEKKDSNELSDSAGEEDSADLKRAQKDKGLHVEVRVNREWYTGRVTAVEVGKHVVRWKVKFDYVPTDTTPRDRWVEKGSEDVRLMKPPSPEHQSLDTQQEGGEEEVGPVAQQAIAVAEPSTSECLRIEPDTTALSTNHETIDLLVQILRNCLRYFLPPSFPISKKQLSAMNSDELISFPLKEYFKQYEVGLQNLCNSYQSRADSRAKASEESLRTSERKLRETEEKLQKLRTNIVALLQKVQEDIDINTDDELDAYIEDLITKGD
UniProt Q96EY8: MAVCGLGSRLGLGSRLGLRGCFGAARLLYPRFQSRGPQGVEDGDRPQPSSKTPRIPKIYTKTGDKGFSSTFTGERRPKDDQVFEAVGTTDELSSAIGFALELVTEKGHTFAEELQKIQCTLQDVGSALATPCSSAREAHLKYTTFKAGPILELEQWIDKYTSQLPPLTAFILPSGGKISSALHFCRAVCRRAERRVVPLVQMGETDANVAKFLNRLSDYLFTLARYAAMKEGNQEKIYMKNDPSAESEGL
UniProt Q9HC36: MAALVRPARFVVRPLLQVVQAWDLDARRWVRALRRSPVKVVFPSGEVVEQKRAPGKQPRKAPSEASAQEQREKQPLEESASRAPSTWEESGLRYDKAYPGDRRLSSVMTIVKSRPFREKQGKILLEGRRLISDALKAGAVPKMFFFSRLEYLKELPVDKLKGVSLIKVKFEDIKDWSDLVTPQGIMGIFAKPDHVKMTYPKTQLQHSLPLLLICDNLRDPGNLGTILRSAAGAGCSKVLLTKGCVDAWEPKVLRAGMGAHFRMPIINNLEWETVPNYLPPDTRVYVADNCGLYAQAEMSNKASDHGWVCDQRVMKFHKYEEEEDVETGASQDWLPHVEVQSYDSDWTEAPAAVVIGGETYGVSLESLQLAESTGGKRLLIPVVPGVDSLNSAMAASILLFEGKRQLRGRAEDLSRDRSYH
UniProt Q15014, whole entry, looked up: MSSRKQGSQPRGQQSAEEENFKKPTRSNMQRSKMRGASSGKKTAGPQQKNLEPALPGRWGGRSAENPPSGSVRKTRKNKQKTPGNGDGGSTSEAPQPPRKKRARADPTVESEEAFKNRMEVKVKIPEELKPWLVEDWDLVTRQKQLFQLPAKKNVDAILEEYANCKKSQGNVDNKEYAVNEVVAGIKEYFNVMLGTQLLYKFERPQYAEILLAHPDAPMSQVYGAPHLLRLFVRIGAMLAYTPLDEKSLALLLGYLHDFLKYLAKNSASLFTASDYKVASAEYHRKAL
UniProt Q9HAP2: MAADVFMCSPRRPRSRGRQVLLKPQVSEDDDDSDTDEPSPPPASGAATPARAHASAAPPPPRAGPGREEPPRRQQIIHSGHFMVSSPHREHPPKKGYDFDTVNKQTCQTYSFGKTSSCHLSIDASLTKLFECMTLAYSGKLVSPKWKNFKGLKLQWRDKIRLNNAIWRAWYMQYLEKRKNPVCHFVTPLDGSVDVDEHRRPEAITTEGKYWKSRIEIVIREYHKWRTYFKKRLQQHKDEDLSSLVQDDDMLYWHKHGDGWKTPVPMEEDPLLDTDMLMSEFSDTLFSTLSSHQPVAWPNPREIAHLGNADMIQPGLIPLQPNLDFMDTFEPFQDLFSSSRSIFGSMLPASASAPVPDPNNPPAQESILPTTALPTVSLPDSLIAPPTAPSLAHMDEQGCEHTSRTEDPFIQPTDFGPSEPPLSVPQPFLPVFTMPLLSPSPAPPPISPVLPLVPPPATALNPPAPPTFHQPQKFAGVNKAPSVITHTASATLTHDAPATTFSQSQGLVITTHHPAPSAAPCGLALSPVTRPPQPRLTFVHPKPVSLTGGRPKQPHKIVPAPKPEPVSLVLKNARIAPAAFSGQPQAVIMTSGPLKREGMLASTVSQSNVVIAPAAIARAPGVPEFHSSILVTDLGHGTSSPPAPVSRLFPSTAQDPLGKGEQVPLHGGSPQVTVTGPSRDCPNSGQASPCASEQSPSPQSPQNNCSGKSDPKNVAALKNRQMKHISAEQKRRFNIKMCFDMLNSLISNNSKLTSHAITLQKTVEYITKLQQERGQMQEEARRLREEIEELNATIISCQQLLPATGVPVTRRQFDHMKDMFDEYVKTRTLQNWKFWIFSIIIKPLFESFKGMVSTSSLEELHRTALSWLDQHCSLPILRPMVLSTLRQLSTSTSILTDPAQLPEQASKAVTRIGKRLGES
UniProt O14880: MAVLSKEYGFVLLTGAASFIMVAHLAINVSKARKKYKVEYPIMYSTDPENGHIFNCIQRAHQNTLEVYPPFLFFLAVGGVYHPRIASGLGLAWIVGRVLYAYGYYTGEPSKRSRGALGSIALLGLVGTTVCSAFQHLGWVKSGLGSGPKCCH
UniProt Q9UNW1: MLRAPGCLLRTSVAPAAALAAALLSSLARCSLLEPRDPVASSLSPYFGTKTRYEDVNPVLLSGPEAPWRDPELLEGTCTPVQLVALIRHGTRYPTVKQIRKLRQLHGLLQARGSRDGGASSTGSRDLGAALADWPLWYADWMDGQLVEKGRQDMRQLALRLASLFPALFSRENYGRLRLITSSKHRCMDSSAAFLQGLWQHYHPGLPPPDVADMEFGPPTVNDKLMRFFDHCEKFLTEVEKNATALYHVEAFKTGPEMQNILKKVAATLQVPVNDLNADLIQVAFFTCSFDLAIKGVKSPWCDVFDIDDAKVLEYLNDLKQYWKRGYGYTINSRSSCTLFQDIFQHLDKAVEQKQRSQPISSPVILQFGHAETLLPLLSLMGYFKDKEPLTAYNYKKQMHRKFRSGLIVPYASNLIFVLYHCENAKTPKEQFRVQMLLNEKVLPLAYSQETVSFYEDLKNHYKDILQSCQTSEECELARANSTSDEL
UniProt A9UHW6: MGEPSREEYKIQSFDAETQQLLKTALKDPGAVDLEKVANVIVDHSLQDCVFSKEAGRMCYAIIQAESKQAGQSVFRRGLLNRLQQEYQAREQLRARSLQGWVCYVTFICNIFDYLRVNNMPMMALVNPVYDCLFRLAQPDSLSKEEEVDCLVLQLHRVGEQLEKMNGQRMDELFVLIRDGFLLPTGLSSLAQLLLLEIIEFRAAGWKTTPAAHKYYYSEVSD
UniProt Q9NV56, whole entry, looked up: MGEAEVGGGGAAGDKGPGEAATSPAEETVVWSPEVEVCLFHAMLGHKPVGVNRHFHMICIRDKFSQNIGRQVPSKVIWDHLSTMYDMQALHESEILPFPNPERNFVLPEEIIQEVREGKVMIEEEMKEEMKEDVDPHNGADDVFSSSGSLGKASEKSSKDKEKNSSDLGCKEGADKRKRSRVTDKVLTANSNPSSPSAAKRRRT
UniProt Q5TGZ0: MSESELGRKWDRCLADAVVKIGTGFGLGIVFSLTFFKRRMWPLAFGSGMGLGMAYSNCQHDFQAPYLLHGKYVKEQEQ

Some of the results follow.

Compound in the first experiment: CCn1c(C(=O)N(C2CC2)C2CC2)cc2c3c(ncn3C)c(Nc3cc(C)n(C)n3)nc21
The experiment is described as follows: log2 fold change, soluble protein after heating vs DMSO (PISA); higher = thermal stabilisation; K562 lysate, 10 uM; active = over 0.2 and 3.5 SD of the protein, either way, in both replicates (recomputed). The essentials:
(§1)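 To prepare the extract, K562 pellets were dounce-homogenised in PBS pH 7.4 with 1 mM MgCl2, giving crude material at 1 mg/mL protein. This was treated with 10 μM compound for 30 min, then heated in aliquots for 3 min over 48°C-58°C before pooling and addition of NP-40 to 0.5% at 4°C. Centrifugation at 21,000xg for 90 min left soluble protein in the supernatant, which TMTpro 16plex LC-MS/MS quantified with equalised channel sums. Results are log-two fold changes in thermal stability compared with solvent controls, from duplicates.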
On to MON2 isoform 5 (UniProt Q7Z3U7), for which the log2 fold change was inactive: 0.019.
Same read-out and setting: with MORF4L1 isoform 2 (UniProt Q9UBU8) the figure was inactive: -0.005.
The same measure, in the same setting: the same measure for MPC2 (UniProt O95563): inactive: -0.025; for MIOS (UniProt Q9NXC5): inactive: 0.008.
On the same count and under the same terms, with MKRN2 (UniProt Q9H000) the figure was inactive: 0.038; with MMUT (UniProt P22033), inactive: 0.025; with MORC2 (UniProt Q9Y6X9), inactive: -0.006.
As to MMAB (UniProt Q96EY8), the log2 fold change was inactive: -0.01.
With MRPL19 (UniProt P49406), the log2 fold change is inactive: 0.
MRM3 (UniProt Q9HC36): the log2 fold change is inactive: -0.039.
For the target MORF4L2 (UniProt Q15014), the log2 fold change was inactive: 0.015.
Same read-out and setting: the same measure for MLXIP (UniProt Q9HAP2): inactive: 0.028.
Still for that read-out and setting: with MGST3 (UniProt O14880) the figure was inactive: 0.006; with MINPP1 (UniProt Q9UNW1), inactive: 0.027.
MOV10 (UniProt Q9HCE1): the log2 fold change was inactive: 0.039.

Compound in another experiment: CCn1cc(-c2ccnc3[nH]c(-c4cccc(CN(C)C)c4)cc23)c(-c2ccc(NC(=O)N(C)C)cc2)n1
The description is as above. Put shortly: as §1
In the case of MGST1 (UniProt P10620), the log2 fold change is active: 0.279.
In the case of MRI1 (UniProt Q9BV20), the log2 fold change is inactive: -0.077.
The same measure, in the same setting: the same measure for MOB4 (UniProt Q9Y3A3): inactive: -0.001; for MKNK1 (UniProt Q9BUB5): inactive: -0.018.
Same read-out and setting: with MIF4GD isoform 3 (UniProt A9UHW6) the figure was inactive: 0.028; with MRPL1 (UniProt Q9BYD6), inactive: 0.013.
For MLX (UniProt Q9UH92), the log2 fold change is inactive: -0.209.
Turning to MPI (UniProt P34949), the log2 fold change is inactive: 0.149.
Same read-out and setting: the same measure for MRGBP (UniProt Q9NV56): inactive: -0.104; for MMTAG2 (UniProt Q9BU76): inactive: 0.044.
On the same count and under the same terms, with MPZL1 (UniProt O95297) the figure was active: 0.262.
On the same count and under the same terms, with MRPL23 (UniProt Q16540) the figure was inactive: -0.004; with MPST isoform 2 (UniProt P25325), inactive: -0.004; with MRPL15 (UniProt Q9P015), active: -0.509.
With MICOS10 (UniProt Q5TGZ0), the log2 fold change was inactive: -0.009.
For the target MIA2 (UniProt Q96PC5), the log2 fold change is inactive: 0.17.
Same read-out and setting: with MKI67 (UniProt P46013) the figure was inactive: -0.014; with MKRN1 (UniProt Q9UHC7), inactive: -0.037; with MRPL14 (UniProt Q6P1L8), inactive: 0.074.
As to MICALL1 (UniProt Q8N3F8), the log2 fold change is inactive: 0.026.
With MICALL2 (UniProt Q8IY33), the log2 fold change was inactive: 0.009.
Regarding MINDY3 (UniProt Q9H8M7), the log2 fold change was inactive: -0.032.
Regarding MPP1 (UniProt Q00013), the log2 fold change is inactive: -0.008.
The same measure, in the same setting: the same measure for MON2 isoform 5 (UniProt Q7Z3U7): inactive: -0.07.
Consider MORF4L1 isoform 2 (UniProt Q9UBU8), for which the log2 fold change was inactive: -0.036.
In the case of MPC2 (UniProt O95563), the log2 fold change is inactive: -0.084.
For MIOS (UniProt Q9NXC5), the log2 fold change is inactive: -0.015.
On the same count and under the same terms, the same measure for MKRN2 (UniProt Q9H000): inactive: 0.064.
Same read-out and setting: with MMUT (UniProt P22033) the figure was inactive: -0.043; with MORC2 (UniProt Q9Y6X9), inactive: -0.041; with MMAB (UniProt Q96EY8), inactive: -0.005.
For the target MRPL19 (UniProt P49406), the log2 fold change was inactive: 0.026.
On the same count and under the same terms, the same measure for MRM3 (UniProt Q9HC36): inactive: 0.093; for MORF4L2 (UniProt Q15014): inactive: -0.012; for MLXIP (UniProt Q9HAP2): inactive: -0.045.
As to MGST3 (UniProt O14880), the log2 fold change is active: 0.286.
Still for that read-out and setting: with MINPP1 (UniProt Q9UNW1) the figure was inactive: -0.028; with MOV10 (UniProt Q9HCE1), inactive: -0.034.

Compound in the next experiment: CN1CCC(CNc2ccc3ncc(-c4cccc(OC(F)(F)F)c4)n3n2)CC1
Described as above. The essentials: as §1
In the case of MGST1 (UniProt P10620), the log2 fold change is inactive: -0.069.
As for MRI1 (UniProt Q9BV20), the log2 fold change was inactive: 0.084.
Consider MOB4 (UniProt Q9Y3A3), for which the log2 fold change was inactive: 0.025.
Same read-out and setting: with MKNK1 (UniProt Q9BUB5) the figure was inactive: 0.039; with MIF4GD isoform 3 (UniProt A9UHW6), inactive: 0.015.
Turning to MRPL1 (UniProt Q9BYD6), the log2 fold change is inactive: 0.
The same measure, in the same setting: with MLX (UniProt Q9UH92) the figure was inactive: 0.027.
As for MPI (UniProt P34949), the log2 fold change was inactive: -0.067.
Turning to MRGBP (UniProt Q9NV56), the log2 fold change is inactive: 0.079.
As to MMTAG2 (UniProt Q9BU76), the log2 fold change is inactive: 0.011.
For MPZL1 (UniProt O95297), the log2 fold change was inactive: -0.052.
MRPL23 (UniProt Q16540): the log2 fold change is inactive: -0.018.
On the same count and under the same terms, the same measure for MPST isoform 2 (UniProt P25325): inactive: 0.03; for MRPL15 (UniProt Q9P015): inactive: 0.174; for MICOS10 (UniProt Q5TGZ0): inactive: 0.031.
On the same count and under the same terms, the same measure for MIA2 (UniProt Q96PC5): inactive: -0.108; for MKI67 (UniProt P46013): inactive: 0.
For the target MKRN1 (UniProt Q9UHC7), the log2 fold change is inactive: 0.015.
For the target MRPL14 (UniProt Q6P1L8), the log2 fold change was inactive: 0.029.
Same read-out and setting: the same measure for MICALL1 (UniProt Q8N3F8): inactive: 0.022; for MICALL2 (UniProt Q8IY33): inactive: -0.039; for MINDY3 (UniProt Q9H8M7): inactive: 0.083.
On the same count and under the same terms, the same measure for MPP1 (UniProt Q00013): inactive: -0.034; for MON2 isoform 5 (UniProt Q7Z3U7): inactive: 0.062.
As to MORF4L1 isoform 2 (UniProt Q9UBU8), the log2 fold change is inactive: 0.131.
Consider MPC2 (UniProt O95563), for which the log2 fold change was inactive: 0.076.
Same read-out and setting: the same measure for MIOS (UniProt Q9NXC5): inactive: 0.036; for MKRN2 (UniProt Q9H000): inactive: -0.079; for MMUT (UniProt P22033): inactive: -0.021.
In the case of MORC2 (UniProt Q9Y6X9), the log2 fold change was inactive: 0.008.
In the case of MMAB (UniProt Q96EY8), the log2 fold change is inactive: 0.034.
Still for that read-out and setting: the same measure for MRPL19 (UniProt P49406): inactive: -0.053; for MRM3 (UniProt Q9HC36): inactive: -0.076.
With MORF4L2 (UniProt Q15014), the log2 fold change is inactive: 0.045.
MLXIP (UniProt Q9HAP2): the log2 fold change is inactive: 0.093.
As to MGST3 (UniProt O14880), the log2 fold change was inactive: -0.082.
The same measure, in the same setting: the same measure for MINPP1 (UniProt Q9UNW1): inactive: 0.023.
The same measure, in the same setting: with MOV10 (UniProt Q9HCE1) the figure was inactive: 0.011.
